Test results published in patent publication US7125658.
No constants are given. Whether binding was seen depends on the method and setting. For part of these data: In cells and extracts the contact can be indirect. Some binding calls cover weakened binding; strength is not graded here. Where a sequence is shown, tags or fusion partners need not be part of it.

Amino acid sequences for entries named in this document (tags omitted). A change or cut given only in a name is not applied to a line headed by its entry.
UniProt P04386: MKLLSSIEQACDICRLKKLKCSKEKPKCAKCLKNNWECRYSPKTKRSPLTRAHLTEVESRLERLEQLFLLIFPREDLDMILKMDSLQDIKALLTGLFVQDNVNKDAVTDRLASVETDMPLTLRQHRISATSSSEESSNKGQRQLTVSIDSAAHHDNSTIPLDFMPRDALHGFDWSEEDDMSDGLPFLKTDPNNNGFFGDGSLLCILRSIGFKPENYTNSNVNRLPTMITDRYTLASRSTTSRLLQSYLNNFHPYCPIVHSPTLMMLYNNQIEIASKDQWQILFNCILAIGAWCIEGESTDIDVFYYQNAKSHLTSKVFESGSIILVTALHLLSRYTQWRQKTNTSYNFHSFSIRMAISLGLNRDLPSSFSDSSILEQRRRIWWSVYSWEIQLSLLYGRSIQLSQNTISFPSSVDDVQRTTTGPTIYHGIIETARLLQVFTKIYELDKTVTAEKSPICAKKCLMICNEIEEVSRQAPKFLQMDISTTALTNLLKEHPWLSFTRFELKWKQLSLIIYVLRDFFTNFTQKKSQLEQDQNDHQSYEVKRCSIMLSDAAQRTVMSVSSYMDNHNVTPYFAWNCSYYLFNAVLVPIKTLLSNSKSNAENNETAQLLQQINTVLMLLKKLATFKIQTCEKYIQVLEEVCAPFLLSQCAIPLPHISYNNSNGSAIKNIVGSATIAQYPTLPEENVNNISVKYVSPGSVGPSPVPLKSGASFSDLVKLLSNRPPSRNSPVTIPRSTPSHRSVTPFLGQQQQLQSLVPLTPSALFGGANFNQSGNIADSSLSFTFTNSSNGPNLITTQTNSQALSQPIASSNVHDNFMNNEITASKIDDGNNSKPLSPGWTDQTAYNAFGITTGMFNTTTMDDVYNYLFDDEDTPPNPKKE

Legend:
[1] = molecular target: T1, GST-Rnr1 (glutathione-S-transferase fused to Rnr1, plasmid pWJ744) (yeast (Saccharomyces cerevisiae)) (UniProt P21524); test: co-immunoprecipitation, figure legend of FIG. 6
T1 sequence (looked up): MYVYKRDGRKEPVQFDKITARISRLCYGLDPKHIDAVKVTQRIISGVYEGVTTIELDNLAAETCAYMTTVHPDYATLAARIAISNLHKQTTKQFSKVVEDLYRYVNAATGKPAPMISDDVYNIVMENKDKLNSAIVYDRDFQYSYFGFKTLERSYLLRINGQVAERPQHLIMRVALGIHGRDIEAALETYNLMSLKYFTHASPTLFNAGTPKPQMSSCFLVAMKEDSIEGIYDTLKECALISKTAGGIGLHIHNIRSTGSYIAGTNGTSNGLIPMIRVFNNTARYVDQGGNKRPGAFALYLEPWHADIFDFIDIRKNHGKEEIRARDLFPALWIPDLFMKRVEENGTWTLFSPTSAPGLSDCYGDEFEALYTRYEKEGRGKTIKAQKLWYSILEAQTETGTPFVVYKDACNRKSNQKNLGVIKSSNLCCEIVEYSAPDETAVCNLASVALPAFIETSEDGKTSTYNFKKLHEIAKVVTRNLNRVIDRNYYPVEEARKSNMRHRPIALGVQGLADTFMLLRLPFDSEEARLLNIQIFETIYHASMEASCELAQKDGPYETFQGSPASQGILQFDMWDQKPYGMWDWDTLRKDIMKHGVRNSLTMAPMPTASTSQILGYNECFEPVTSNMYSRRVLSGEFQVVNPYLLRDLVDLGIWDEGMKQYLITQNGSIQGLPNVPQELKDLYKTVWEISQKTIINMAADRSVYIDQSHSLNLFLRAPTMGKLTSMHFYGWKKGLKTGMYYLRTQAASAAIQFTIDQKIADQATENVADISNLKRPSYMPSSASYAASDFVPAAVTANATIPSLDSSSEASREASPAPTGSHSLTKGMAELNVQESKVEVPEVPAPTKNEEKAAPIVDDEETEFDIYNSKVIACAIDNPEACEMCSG

[2] = molecular target: T1, GST-Rnr1 (glutathione-S-transferase fused to Rnr1, plasmid pWJ744) (yeast (Saccharomyces cerevisiae)); test: summary sentence: two-hybrid and co-immunoprecipitation
[3] = molecular target: T1, GST-Rnr1 (glutathione-S-transferase fused to Rnr1, plasmid pWJ744) (yeast (Saccharomyces cerevisiae)); test: co-immunoprecipitation / glutathione bead pull-down from yeast extract, western blot
[4] = molecular target: T1, GST-Rnr1 (glutathione-S-transferase fused to Rnr1, plasmid pWJ744) (yeast (Saccharomyces cerevisiae)); test: glutathione-bead pull-down from 500 µg yeast extract, Western blot with anti-HA (lower panel) and anti-GST (upper panel)
[5] = molecular target: T2, HA-Sml1 (3XHA tag fused to the N-terminus of Sml1, plasmid pWJ699) (Saccharomyces cerevisiae (yeast)) (UniProt Q04964); test: co-immunoprecipitation with anti-HA antibody and protein-G beads from 500 µg yeast extract, Western blot with anti-GST (upper panel) and anti-HA (lower panel)
T2 sequence: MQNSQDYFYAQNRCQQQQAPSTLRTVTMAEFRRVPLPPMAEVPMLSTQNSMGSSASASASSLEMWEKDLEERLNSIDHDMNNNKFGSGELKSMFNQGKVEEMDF

[6] = molecular target: GBD-Rnr1 two-hybrid fusion (plasmid pWJ731) (yeast (Saccharomyces cerevisiae)) (UniProt P04386+P21524); test: yeast two-hybrid, GAD-Sml1 with GBD-Rnr1

B1: HA-Sml1 (3XHA tag fused to the N-terminus of Sml1, plasmid pWJ699) (protein, not shown: small tags and cut ends)
chain: T2 sequence
binding [1]: binds
binding [2]: binds
binding [3]: binds
binding [4]: binds

B2: GST-Rnr1 (glutathione-S-transferase fused to Rnr1, plasmid pWJ744) (protein, yeast (Saccharomyces cerevisiae), UniProt P21524 1-888, looked up, not shown: a dimerising Fc or GST)
chain: T1 sequence (looked up)
binding [5]: binds

B3: GAD-Sml1 two-hybrid fusion (plasmid pWJ684, pACTII) (protein, not shown: large carriers)
chain: T2 sequence
binding [6]: binds
